Measurements as given in PMC10845952.
No constants are given. Whether binding was seen depends on the method and setting. In cells and extracts the contact can be indirect. These calls come from enrichment with a bait or labelling near it, and not all partners need be listed. Tags and fused reporters may be left off the sequences shown.

T1: MecA with C-terminal tandem affinity purification (TAP) tag (3x HA + FLAG) (S. mutans) (UniProt Q8DW33)
T1 sequence: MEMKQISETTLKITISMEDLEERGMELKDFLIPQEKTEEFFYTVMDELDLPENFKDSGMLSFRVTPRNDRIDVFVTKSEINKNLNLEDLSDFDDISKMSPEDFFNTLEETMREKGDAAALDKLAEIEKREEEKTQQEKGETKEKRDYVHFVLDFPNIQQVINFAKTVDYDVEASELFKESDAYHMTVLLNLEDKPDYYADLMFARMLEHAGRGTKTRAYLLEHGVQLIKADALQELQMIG

B1: Glutamate synthase subunit beta, GltB (protein, UniProt Q8CWY8 1-478)
chain: MADPFGFLKYERKDNPYRPVNERIKDFEELQTTLSVEERQKQAARCMNCGIPFCHEGTFYGGGRAVSGCPNDNLIPEWNDLIYKGDFRRAFERLTRTNPLPEMTGRVCPAPCEKACTEGLNGSGVTIHDNERFIIDNAFEEGWVADSGRPIERTGFKVAVVGSGPAGLSAAWRLNQLGHSVTVFERSDRFGGLLMYGIPNMKLDKKIVQRRIDTMASIGINFVANTEIGRDITAEELLEKFDRVILATGASVPRDLDIPGRDLKGIRFAVDFLTETTKNLLDSDTHELPPLLEGKHVLVIGGGDTGNDCIGTAVRLGAASVRQLEITPQLPEKRLPTNPWPQYPMINRTGYGQEEADFVQQTDLTDYITSTVEFLGENGQVTAVKTIKVGPGFKAIEGTEEVIKADLVLLAMGFTGAEKALFDQFRVECVYDDYSTRNEKVFVAGDARRGPSLVIWGIREGRKTAEKIDQNLRMMVTE
B2: 3-deoxy-7-phosphoheptulonate synthase, AroG (protein, UniProt Q8DSF2 1-344)
chain: MGIHQKSKTIDLFTVKQGTQLKGQDLAKKEARDRELVSIIKGEDNRLLLIIGPCSSDNEEAVLEYAKRLAKLQEEVKDRIFMVMRVYTAKPRTNGDGYKGLIHQPNTSKLPDLINGIHAVRNLHYRVITETGLTTADEMLYPSNLVLVDDLVSYHAVGARSVEDQEHRFVASGIDVPTGMKNPTSGNLKVMLNALHAAQNSQNFIYNGAEVETDGNSLAHVILRGGSNEHGDYEPNYYYDVLLKLIQQYENMNLINPFIVVDTNHDNSGKNYLEQVRIVRQTLINRDWNDKINKYVRGFMIESYLEDGRQDKPEVFGKSITDPCLGWENTQQLIYEIYHTLKAK
B3: FtsQ-type POTRA domain-containing protein, FtsQ (protein, UniProt Q8DVE1 1-374)
chain: MAKDKDTEKQEIPLTEWQQRNLEFLKKKQEEKREKEKLNEKKMAEKKAQFQTDKEADSKESDKQPSSLFDDKKQEEPKKKPATPKKIKKEKKVPKLPRKDYWQAAMVIIISSIVLIASLFMISPLSRQKEITVSGNKNAIESQLIEELGIKKSDYLTTLLFQANRFERNLKSKDKWVKEAKLVYHFPNHFTLRVKEYRIIAYRQTDKGYVPILENGTRVDTVNASELPGSFVTINLDQEKEVRELVQKLAKLDKSLVGSIKVISSVNSSSTKDLLLLEMKDNNSVRVPLSEIDTKLPYYSKIKKNLTDGSIVDMEVGIYSTTADIEASIAEHKTTATTESSENSSNAENTDSTQSSEANSQEGSQSVTQATVSQ
B4: Cell division protein, FtsZ (protein, UniProt Q8DVD9 1-434)
chain: MAFSFDAASVQGAVIKVIGVGGGGGNAINRMIDEGVAGVEFIAANTDIQALSSSKAETVIQLGPKLTRGLGAGGQPEIGRKAAEESEEALTEALTGADMVFITAGMGGGSGTGAAPVIARIAKGLGSLTVAVVTRPFGFEGSKRGNYAIEGINELRDEVDTLLIISNNNLLEIVDKKTPLLEALSEADNVLRQGVQGITDLITSPGLINLDFADVKTVMASKGNALMGIGIGTGEERVVEAARKAIYSPLLETTIDGAEDVIVNVTGGLDMTLTEAEEASEIVNQAAGHGVNIWLGTSIDDSMKDEIRVTVVATGVRPDKADQVSGIRRQASSYTQPRAQQQAPSSNSAQPNFERRQNFDFDLNESPEMPAAEPQQTQSSSEPQQSAFGDWNLRRENIARPTEGEIDSQLKMSSFSADSDDDDELETPPFFKNR
B5: phospho-sugar mutase, Pgm (protein, UniProt Q8DU72 1-571)
chain: MVYQENYQKWLAYAKLPDYLHQELLAMDEKTKEDAFYTNLEFGTAGMRGYIGAGTNRINIYVVRQATEGLAQLIETKGDDVKKRGVAIAYDSRHFSQEFAFESAQVLAKHGIKAYVFESLRPTPELSFTVRHLGTFAGIMVTASHNPAPFNGYKVYGEDGGQMPPFDADALTDFIRAINDPFSIELADLEESKASGLIEVIGEAVDTDYLKEVKDVNINQKLIDEYGKDMKIVYTPLHGTGEMLARRALAQAGFDSVQVVEAQAVPDPDFSTVKSPNPENQEAFRLAEELGRQVDADVLVATDPDADRLGVEIRQADGSYKNLSGNQIGAIIAKYILEAHKTAGSLPTNAALCKSIVSTELVSKIAESYGATMFNVLTGFKFIAEKIQEFEEKHNHTYMFGFEESFGYLIKPFVRDKDAIQAVLIVAEIAAYYRSRGLTLADGIDEIYKEYGYFAEKTISVTLSGVDGATEIKKIMDKFRGDAPKQFNATDVVKLEDFQAQTATTADGIEKLTTPPSNVLKYILSDASWIAVRPSGTEPKIKFYIATVGNNSEDAQVKIANIEKEINDFVG
B6: Acetyl-CoA carboxylase carboxyl transferase subunit alpha, AccA (protein, UniProt Q8DSP1 1-256)
chain: MSDVSRILKEARSQSRLTTLDYAEQIFDDFMELHGDRHFADDGAIVGGIGLLDGQAVTVIGVQKGKNLQDNLNRNFGQPNPEGYRKALRLMKQAEKFKRPVVTFINTAGAYPGIGAEERGQGEAIARNLLEMSDLKVPIIAIIIGEGGSGGALALAVADKVWMLEHTMYAVLSPEGFASILWKDGSRSIEAAELMKITAGELLKMEVVDKVIPEHGYFSSEIIQMLKTNLIEELKNLDQYPLNDLLEKRYQRFRKY
B7: Acetyl-CoA carboxylase biotin carboxylase subunit, AccC (protein, UniProt Q8DSN9 1-456)
chain: MFKKILIANRGEIAVRIIRAARELGIVTVAVYSEADKESLHTLLADEAVCVGPAKSTDSYLNMNAILSAAIVTGAEAIHPGFGFLSENSKFATMCEEMRIKFIGPSASVMDKMGDKINARSEMLKAKVPVIPGSDGEVFTAQEALEIAQDIGYPVMLKASAGGGGKGIRKVDKKEDLTAAFESASQEALSAFGNGAMYLEKVIYPARHIEVQILGDSFGNIIHLGERDCSLQRNNQKVLEESPSIAIGKTLRGKMGDAAVRAAKAVAYENAGTIEFLLDEASGQFYFMEMNTRVQVEHPVTEFVTGIDIVKEQIKIAAGQELTYQQKDIVISGHAIECRINAENPKFNFAPSPGKVEDLFLPSGGVGLRVDSAMYNNYTIPPYYDSMIAKIIVHGENRFDALMKMQRALYEFEVTGVVTNAEFQLDLISNPNVIAGDYDTSFLMETFLPAYANDKE
B8: 3-oxoacyl-[acyl-carrier-protein] reductase, FabG (protein, UniProt Q8DSN5 1-244)
chain: MEIKNKNVFITGSTRGIGLAIAHKFAQAGANIVLNGRSEISQDLVAEFKDYGVKVATISGDVSHFEDAKRMVDEATEALGSVDILVNNAGITNDKLMLKMTEEDFERVLKINLTGSFNMTKAVLKPMTKARQGAIINMSSVVGLAGNVGQANYAASKAGLIGFTKAVAREVAARNIRVNAIAPGFIESDMTERIPNKMKDAMLNQIPMKTFGKTENVAEVAMFLAQQDYLTGQVIAIDGGMTMQ
B9: Beta-ketoacyl-ACP synthase II, FabF (protein, UniProt Q8DSN6 1-410)
chain: MTLKRVVVTGYGVTSPIGHTPEDFWNSLHDGKIGIKPITKFDASEIPVFNAGEIQDFPFDKYFVKKDKNRMDTYSLYAIYAAMEAIENAALDMAQEIRDRVGVIVSSGIGGLQELEDQIIRMHERGMKRIKPMFIPKALSNMGAGNIALKIGAQGVCKSITTACASANDAIGEAFREIKYGFHDVILAGGSEASITKIGIGGFNALTALSTTEDPARSAIPFDKDRNGFVMGEGAAVLILESLEHAQKRGARILAEVVGYGSNCDAYHMTTPTPDGSGAAKAIKLAINEAGISPEEVNYVNAHGTSTQANEKGESKAIVAVLGKDVPVSSTKSFTGHLLGAAGGVEAIATIEAIRNHFVPMTAGTKELSEDIEANVVYGQGQEAVIKYAISNTFGFGGHNAVLAFKRWED
B10: ACP S-malonyltransferase, FabD (protein, UniProt Q8CWW8 1-306)
chain: MTKTAFLFAGQGAQKLGMASDLYEIYPVVKETFKTAHSILGYDVRALIDNDEEKLNQTRYAQPAILTTSVAIYRLLKEKGYQPDIVAGLSLGEYSALVAAGAISFEDALALVAKRGEFMETAAPAGVGKMVAVMNTDPRLIEEICQKASSKGIVSPANYNTPTQIVIGGEVAAVDYAVELLKGAGSKRLISLKVSGPFHTALLKSASQKLAQALENIKFSDFMLPLVGNTKAEIMKEQEIKPLLARQVKEPVRFYESIAVMQKFGVNNYVEIGPGKVLSGFVKKIDKSAKISAVEDLASLQAFLDN
B11: Chromosome segregation protein, SMC (protein, UniProt Q7ZAL0 1-1178)
chain: MFLKEIEMQGFKSFADKTKVEFDRGVTAVVGPNGSGKSNITESLRWALGESSAKSLRGGKMPDVIFAGTENRKPLNYAQVTVILDNSDAFIKDAQEEIRIERHIYRNGDSDYLIDGKKVRLRDIHDLFMDTGLGRDSFSIISQGRVEEIFNSKPEERRSIFEEAAGVLKYKTRKKETQSKLTQTQDNLDRLDDIIYELETQIKPLERQAKTAKEFLVLETERKEKQLDLLVYQILHHKEALVKNQAELEKVKQNLAAYYQERDLLETKNQTLKEKRHQLSRQMDQKQADLLEMTRLISDYERQIERIHLEVSQKTEKKQSTQKSLEQLSEQKASLKTELAQKEVDLEQLEEDLKQKNQEIKNVETELSRFATDPDHIIESLREDFVRLMQKEADTSNQLAVLKAEMDSRKQESESKTAEIKQVQADLEKAKDREQRESANFETAKTKVQELLKDYQKTAQLVQNLEAAYAEQQEAMFQLLDDVKDKKARQSSLKSILKSHSNFYAGVRSVLQQADKIKGIVGAVSEHLTFDKKYQTALEIALGASSQNIIVEDEAAAKRSIDFLKKNHQGRATFLPLTTIKPRRLSESNQSLLTSSQGFLGLARDLVSFEPRLQTIFGNLLGVTAIFDTVGHANQAARQLRYQVRLVTLDGTEIRPGGSFSGGTSRQNNTTFIKPELDHLTQELALLEEKQVEQERIVEKTKQDLEVKKADLLELREKGNQARLAEQKAEMEYQQSESHLQELVLLYTQLKQTNQADLNRDLEKDQALLQEKLYKIADDKEKLNQEIAQIKEDKDSIQQKTAALSQRLSSLQLSERDLANTQKFERTNLKRLAEELAELEQNEAGMMQLLDSQEEDLDEKRLPSLKRQLANAQARKTESDQELVRYRFELEDCEAQLEEVETNLLKTNQKNEEFIRQQTQLEAKRDHLSNQLRRFANNLAEDYQLSLDDAKQEAGPIENLEAAQAHLSQLEKQIKGLGPVNLDAIGQYDEVSERLHFLNSQKDDLVHAKELLLNTIHDMDDEVKARFKTTFEAIRDSFKTTFTQMFGGGSADLLLTEGDLLMTGVEISVQPPGKKIQSLNLMSGGEKALSALALLFAIIRVKTIPFVILDEVEAALDEANVKRFGDYLNRFDKSSQFIVVTHRKGTMSAADSIYGVTMQESGVSKIISVKLKEVEKIS

These binders were tested against T1, MecA with C-terminal tandem affinity purification (TAP) tag (3x HA + FLAG) (S. mutans) (assay: affinity purification with mass spectrometry; MecA with C-terminal TAP tag (3x HA + FLAG) as bait; S. mutans grown to mid-logarithmic phase, formaldehyde crosslinked; anti-FLAG affinity resin, then anti-HA affinity resin; LC-MS/MS; three experiments; >=2-fold enrichment of spectral counts over the untagged wild type).

**Q.** How did the binding turn out when B1 was run?
**A.** binds

**Q.** Which binding does the source give for B2 here?
**A.** binds

**Q.** How did the binding turn out when B3 was run?
**A.** binds

**Q.** For B4, which binding is on record?
**A.** binds

**Q.** How did the binding turn out when B5 was run?
**A.** binds

**Q.** How did the binding turn out when B6 was run?
**A.** binds

**Q.** With B7 as the binder, how does the binding read?
**A.** binds

**Q.** How did the binding turn out when B8 was run?
**A.** binds

**Q.** With B9 as the binder, how does the binding read?
**A.** binds

**Q.** How did the binding turn out when B10 was run?
**A.** binds

**Q.** With B11 as the binder, how does the binding read?
**A.** binds
